Data as given in PubChem BioAssay AID652259 (Drosophila RNAi Screening Center, 2013).
The deposit covers about 22,000 reagents; this is a random part of those with a known target gene and a result. Over the whole deposit, 233 (1.1%) are marked active. 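Light values are raw, unnormalised plate reads; the ratio scores behind the reporter calls were not deposited.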 A plus sign joins genes that one reagent is predicted to hit. The record does not give: the amount of reagent, the time to read-out, the dose of the treatment.

Test: 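Genome-wide hunt for genes that control Wingless pathway activity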 (primary screen)
Cell system: Drosophila clone 8 imaginal disc epithelial cells
Reagents: long dsRNA against Drosophila genes
Conditions: pathway stimulated by co-transfected Wingless expression plasmid
Read-out: 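Dual luciferase reads per well after Wingless plasmid stimulation: reporter firefly light and Renilla control light; activity is firefly divided by Renilla, a ratio not deposited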
Scale: firefly reporter light: higher = more Wg reporter light, before normalisation; Renilla control light: higher = more transfected or surviving cells
Rule for the call: 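Strong candidates differ from their plate mean by at least two out of four per-plate statistical tests; weak candidates meet just one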
Calls: active = candidate regulator (raises or lowers reporter); inactive = not a candidate

Target gene | amplicon | reporter change call, replicate 1 | firefly reporter light, replicate 1 | firefly reporter light, replicate 2 | Renilla control light, replicate 1 | Renilla control light, replicate 2 | call
SrpRalpha | DRSC20251 | – | 1447 | 6971 | 1059 | 3389 | inactive
Epg5 | DRSC14778 | – | 16995 | – | 3553 | – | inactive
CG33543 | DRSC00384 | – | 6779 | 12477 | 1204 | 2241 | inactive
CG33543 | DRSC00385 | – | 4069 | 5197 | 1347 | 2593 | inactive
CG18539 | DRSC06766 | – | 7824 | – | 2778 | – | inactive
CG13455 | DRSC10002 | – | 6672 | – | 2349 | – | inactive
CG3770 | DRSC04416 | – | 12905 | – | 3338 | – | inactive
CG16749 | DRSC15146 | – | 16359 | – | 3021 | – | inactive
mthl10 | DRSC08504 | – | 7600 | – | 2521 | – | inactive
mthl10 | DRSC08505 | – | 10025 | – | 4230 | – | inactive
CG14341 | DRSC00371 | – | 2400 | 7973 | 1632 | 3761 | inactive
LPCAT | DRSC18157 | – | 23472 | – | 12701 | – | inactive
LPCAT | DRSC18257 | – | 15106 | – | 9911 | – | inactive
CG18258 | DRSC19798 | – | 22240 | – | 10342 | – | inactive
CG32333 | DRSC08627 | – | 16520 | – | 4635 | – | inactive
CG32333 | DRSC08629 | – | 3210 | – | 1036 | – | inactive
CG34278 | DRSC13208 | – | 3424 | – | 1456 | – | inactive
Srg3 | DRSC08984 | – | 4934 | – | 858 | – | inactive
Srg3 | DRSC10178 | – | 6168 | – | 3282 | – | inactive
Fas3 | DRSC01638 | – | 21808 | – | 10937 | – | inactive
Fas3 | DRSC03326 | – | 1936 | 5689 | 673 | 2196 | inactive
Fas3 | DRSC22776 | – | 4.90e5 | 4.51e5 | 1.90e5 | 1.23e5 | inactive
CG33290 | DRSC11493 | – | 1995 | – | 1277 | – | inactive
IFT54 | DRSC15469 | – | 22080 | – | 5671 | – | inactive
CG11327 | DRSC02146 | – | 2049 | 8272 | 795 | 2464 | inactive
CG42394 + CG6567 | DRSC12821 | – | 5512 | – | 2596 | – | inactive
CG17528 | DRSC07761 | – | 5562 | – | 2760 | – | inactive
Krn | DRSC11202 | – | 6791 | – | 2538 | – | inactive
CG13255 | DRSC11702 | – | 14916 | – | 5205 | – | inactive
CG7011 | DRSC09347 | – | 3073 | – | 1446 | – | inactive
Buffy | DRSC05957 | – | 7771 | – | 3168 | – | inactive
Or65a | DRSC08808 | – | 2050 | – | 266 | – | inactive
Mst98Ca | DRSC16749 | – | 3032 | 7738 | 1472 | 1533 | inactive
CG14259 | DRSC14754 | – | 5325 | – | 2332 | – | inactive
CG10948 | DRSC09806 | – | 7648 | – | 3813 | – | inactive
Fbp2 | DRSC03327 | – | 6612 | – | 2672 | – | inactive
beat-VII | DRSC13780 | – | 5788 | – | 2491 | – | inactive
beat-VII | DRSC14743 | – | 6948 | – | 3106 | – | inactive
beat-VII | DRSC14744 | – | 8221 | – | 2645 | – | inactive
beat-VII | DRSC22825 | – | 4.88e5 | 5.21e5 | 2.14e5 | 2.91e5 | inactive
Gr22c | DRSC22081 | – | 7.33e5 | 8.11e5 | 3.47e5 | 3.89e5 | inactive
CG14020 | DRSC02350 | – | 2112 | 4548 | 1042 | 826 | inactive
CG9426 | DRSC03219 | – | 1954 | 6712 | 1016 | 2090 | inactive

Targets above whose gene name starts with S or s (3):
Target gene | amplicon | reporter change call, replicate 1 | firefly reporter light, replicate 1 | firefly reporter light, replicate 2 | Renilla control light, replicate 1 | Renilla control light, replicate 2 | call
SrpRalpha | DRSC20251 | – | 1447 | 6971 | 1059 | 3389 | inactive
Srg3 | DRSC08984 | – | 4934 | – | 858 | – | inactive
Srg3 | DRSC10178 | – | 6168 | – | 3282 | – | inactive

Further results follow:
Target gene | amplicon | reporter change call, replicate 1 | firefly reporter light, replicate 1 | firefly reporter light, replicate 2 | Renilla control light, replicate 1 | Renilla control light, replicate 2 | call
CG31055 | DRSC13832 | – | 4123 | – | 1914 | – | inactive
sad | DRSC16630 | – | 17945 | – | 4344 | – | inactive
PKD | DRSC16200 | – | 14956 | – | 3680 | – | inactive
CG10274 | DRSC09716 | – | 4228 | – | 1552 | – | inactive
Ir41a | DRSC04730 | – | 18889 | – | 8535 | – | inactive
Ir41a | DRSC04875 | – | 3395 | 7928 | 425 | 2012 | inactive
Membrin | DRSC10448 | – | 1408 | 5754 | 1616 | 3184 | inactive
AlkB | DRSC19115 | – | 2566 | – | 1112 | – | inactive
CG14561 | DRSC11722 | – | 22483 | – | 5632 | – | inactive
Ada | DRSC14463 | – | 23120 | – | 4365 | – | inactive
Zip102B | DRSC17155 | – | 24528 | 7.50e5 | 22877 | 3.40e5 | inactive
CG5447 | DRSC15801 | – | 42281 | – | 33507 | – | inactive
TM9SF2 | DRSC03197 | – | 8675 | – | 1959 | – | inactive
CG8613 | DRSC07222 | – | 12404 | – | 3547 | – | inactive
Dic1 | DRSC14125 | – | 5488 | – | 2640 | – | inactive
CG12831 | DRSC06179 | – | 2400 | 5211 | 861 | 3504 | inactive
tko | DRSC18844 | – | 14246 | – | 12528 | – | inactive
Toll-4 | DRSC03458 | – | 3201 | 3529 | 835 | 1765 | inactive
hubl | DRSC06825 | – | 4992 | 8477 | 720 | 2650 | inactive
pb | DRSC12409 | – | 2564 | – | 1557 | – | inactive
pb | DRSC12629 | Wg reporter activity raised | 25349 | – | 2364 | – | active
CG8620 | DRSC11020 | – | 2250 | 8800 | 1097 | 2967 | inactive
Tace | DRSC16340 | – | 3897 | 6506 | 1425 | 1307 | inactive
CG14689 | DRSC14912 | – | 12000 | – | 3400 | – | inactive
CG31715 | DRSC21607 | – | 5.31e5 | 6.10e5 | 2.06e5 | 1.57e5 | inactive
dib | DRSC08711 | – | 5697 | – | 2743 | – | inactive
Gas8 | DRSC22884 | – | 8.94e5 | 6.62e5 | 3.05e5 | 68 | inactive
CG34444 | DRSC06435 | – | 4969 | – | 1559 | – | inactive
Hsp70Aa + Hsp70Bb + Hsp70Ba + 3 more | DRSC15380 | – | 24560 | – | 6713 | – | inactive
CG12539 | DRSC19470 | – | 18425 | – | 7338 | – | inactive
Cpr49Aa | DRSC07197 | – | 5860 | – | 2680 | – | inactive
CG8677 + CG31626 | DRSC01838 | – | 12672 | – | 14598 | – | inactive
CG3165 | DRSC00573 | – | 6829 | – | 3424 | – | inactive
CG30105 | DRSC05668 | – | 20225 | – | 13602 | – | inactive
tou | DRSC06006 | – | 19574 | – | 5665 | – | inactive
tou | DRSC22710 | – | 6.44e5 | 7.00e5 | 2.51e5 | 3.03e5 | inactive
lncRNA:CR43242 | DRSC03827 | – | 3512 | 12935 | 914 | 3175 | inactive
nsr | DRSC04427 | – | 19618 | – | 6059 | – | inactive
nsr | DRSC22806 | – | 5.57e5 | 6.10e5 | 2.05e5 | 2.55e5 | inactive
Kr-h1 | DRSC00908 | – | 13996 | – | 5665 | – | inactive
Kr-h1 | DRSC03355 | – | 10996 | – | 4073 | – | inactive
CG34205 | DRSC04149 | – | 3028 | 11312 | 1000 | 3957 | inactive
CG34205 | DRSC22823 | – | 5.51e5 | 5.11e5 | 2.35e5 | 2.98e5 | inactive
metro | DRSC06341 | – | 10873 | – | 3017 | – | inactive
metro | DRSC06725 | – | 6177 | – | 2825 | – | inactive
baf | DRSC03051 | – | 7091 | 13063 | 1237 | 3200 | inactive
Or67a | DRSC11240 | – | 5941 | – | 2833 | – | inactive
asRNA:CR43299 + CG8119 | DRSC20083 | – | 16595 | – | 8323 | – | inactive
CG3632 | DRSC19137 | – | 5537 | – | 1752 | – | inactive
CG3632 | DRSC19871 | – | 1837 | 6188 | 758 | 1952 | inactive
